Experimental data as given in paper doi:10.1101/2024.12.01.626216.
These are yes or no findings as the source states them, for the method shown. In cells and extracts the contact can be indirect. Some entries that bind do so weakly or less than the wild type.

Target: T1, DNAJC7 (human (endogenous in iPSC-derived motor neurons)) (UniProt Q99615)
T1 sequence: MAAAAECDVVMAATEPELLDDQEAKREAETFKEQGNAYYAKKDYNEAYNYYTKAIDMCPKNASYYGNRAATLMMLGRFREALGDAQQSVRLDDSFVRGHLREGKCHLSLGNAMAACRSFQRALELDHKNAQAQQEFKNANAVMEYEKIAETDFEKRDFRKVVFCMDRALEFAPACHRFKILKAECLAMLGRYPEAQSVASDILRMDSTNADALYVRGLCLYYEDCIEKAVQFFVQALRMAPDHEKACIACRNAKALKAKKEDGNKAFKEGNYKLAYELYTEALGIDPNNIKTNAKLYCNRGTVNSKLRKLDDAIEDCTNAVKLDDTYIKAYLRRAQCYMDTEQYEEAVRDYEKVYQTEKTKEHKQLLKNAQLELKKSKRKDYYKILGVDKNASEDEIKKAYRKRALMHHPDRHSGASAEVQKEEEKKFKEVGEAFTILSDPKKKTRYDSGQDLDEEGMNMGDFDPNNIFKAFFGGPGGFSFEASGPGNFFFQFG
Test: co-IP; immunoprecipitation of endogenous DNAJC7 from iPSC-derived human motor neurons followed by Western blot; input = 4% of total protein

B1: MATR3 (protein, UniProt P43243 1-847)
chain: MSKSFQQSSLSRDSQGHGRDLSAAGIGLLAAATQSLSMPASLGRMNQGTARLASLMNLGMSSSLNQQGAHSALSSASTSSHNLQSIFNIGSRGPLPLSSQHRGDADQASNILASFGLSARDLDELSRYPEDKITPENLPQILLQLKRRRTEEGPTLSYGRDGRSATREPPYRVPRDDWEEKRHFRRDSFDDRGPSLNPVLDYDHGSRSQESGYYDRMDYEDDRLRDGERCRDDSFFGETSHNYHKFDSEYERMGRGPGPLQERSLFEKKRGAPPSSNIEDFHGLLPKGYPHLCSICDLPVHSNKEWSQHINGASHSRRCQLLLEIYPEWNPDNDTGHTMGDPFMLQQSTNPAPGILGPPPPSFHLGGPAVGPRGNLGAGNGNLQGPRHMQKGRVETSRVVHIMDFQRGKNLRYQLLQLVEPFGVISNHLILNKINEAFIEMATTEDAQAAVDYYTTTPALVFGKPVRVHLSQKYKRIKKPEGKPDQKFDQKQELGRVIHLSNLPHSGYSDSAVLKLAEPYGKIKNYILMRMKSQAFIEMETREDAMAMVDHCLKKALWFQGRCVKVDLSEKYKKLVLRIPNRGIDLLKKDKSRKRSYSPDGKESPSDKKSKTDGSQKTESSTEGKEQEEKSGEDGEKDTKDDQTEQEPNMLLESEDELLVDEEEAAALLESGSSVGDETDLANLGDVASDGKKEPSDKAVKKDGSASAAAKKKLKKVDKIEELDQENEAALENGIKNEENTEPGAESSENADDPNKDTSENADGQSDENKDDYTIPDEYRIGPYQPNVPVGIDYVIPKTGFYCKLCSLFYTNEEVAKNTHCSSLPHYQKLKKFLNKLAEERRQKKET
  binding: binds
